{"source": "PubChem BioAssay AID2685", "about": "(National Center for Advancing Translational Sciences (NCATS), 2010)", "experiment": "qHTS Assay for Lipid Storage Modulators in Drosophila S3 Cells;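 for cell number change: cells counted by Cell Tracker Red CMTPX staining in the red channel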", "conditions": "BODIPY lipid droplet fluorescence, 18-24 h; for cell number change: measured here: cell count max response, cells fed with added oleic acid", "summary_of_the_method": "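Laser-scanning cytometry quantifies lipid droplet accumulation (500–530 nm total intensity; droplet/cell object ratio) in oleic acid-fed (400 uM added) Drosophila S3 cells treated with a concentration series. 20 uM Triacsin C defined 100% inhibition.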", "key": {"[1]": {"conditions": "measured here: cell number channel AC50, cells fed with added oleic acid"}, "[2]": {"conditions": "measured here: lipid fluorescence (Fed channel) AC50, cells fed with added oleic acid"}}, "note": "The list shows a part of the results. These are further read-outs of the screen, such as a control signal, another cell line or another target. No call is given for them. The list favours compounds with an active or inconclusive main result. The note in brackets gives the kind of curve behind each potency; many fits are weak.", "data": [{"smiles": "CCOC(=O)c1c(C)oc2c1c(C(c1cccnc1)N1CCCCC1)c(O)c1ccccc12", "note": "(stereo not drawn)", "values": [{"measurement": "cell number change", "value": 11.5, "unit": "%"}, {"measurement": "AC50", "setting": "[1]", "value": "1.46 µM [rising, partial curve]"}, {"measurement": "AC50", "setting": "[2]", "value": "1.64 µM [rising, partial curve]"}]}, {"smiles": "O/N=C(\\c1ccc(Cl)cc1)c1ncc(C(F)(F)F)cc1Cl", "values": [{"measurement": "cell number change", "value": -77.5, "unit": "%"}, {"measurement": "AC50", "setting": "[1]", "value": "23.1 µM [falling, partial curve, poor fit]"}, {"measurement": "AC50", "setting": "[2]", "value": "20.6 µM [falling, partial curve]"}]}, {"smiles": "Cc1cccc(NC(=O)CN2CCN(C(=O)c3ccc(-c4nc5ccccc5s4)o3)CC2)c1C", "values": [{"measurement": "cell number change", "value": 1.36, "unit": "%"}, {"measurement": "AC50", "setting": "[2]", "value": "0.146 µM [falling, full curve, poor fit]"}]}, {"smiles": "COc1cc(-c2noc(C)c2-c2ccc3[nH]ccc3c2)cc(OC)c1OC", "values": [{"measurement": "cell number change", "value": -5.18, "unit": "%"}]}, {"smiles": "Cc1c(C(=O)Nc2cccc(Cl)c2)oc2ccc(S(=O)(=O)N3CCC4(CC3)OCCO4)cc12", "values": [{"measurement": "cell number change", "value": -18.8, "unit": "%"}, {"measurement": "AC50", "setting": "[1]", "value": "7.31 µM [falling, partial curve, poor fit]"}, {"measurement": "AC50", "setting": "[2]", "value": "7.31 µM [falling, partial curve, poor fit]"}]}, {"smiles": "COc1ccc(C(=O)Nc2ccc(S(=O)(=O)NC(C)=O)cc2)cc1", "values": [{"measurement": "cell number change", "value": -119, "unit": "%"}, {"measurement": "AC50", "setting": "[1]", "value": "20.6 µM [falling, single point]"}]}, {"smiles": "CNc1ccccc1", "values": [{"measurement": "cell number change", "value": 9.9, "unit": "%"}, {"measurement": "AC50", "setting": "[2]", "value": "0.092 µM [rising, single point]"}]}, {"smiles": "Cc1ccc(C(=O)COC(=O)C(C)N2C(=O)C3C4C=CC(C4)C3C2=O)cc1", "note": "(stereo not drawn)", "values": [{"measurement": "cell number change", "value": 11.5, "unit": "%"}, {"measurement": "AC50", "setting": "[2]", "value": "13 µM [rising, partial curve, poor fit]"}]}, {"smiles": "CN1CCN(C(=O)/C(=C/c2ccccc2F)NC(=O)c2ccccc2)CC1", "values": [{"measurement": "cell number change", "value": -12.4, "unit": "%"}]}, {"smiles": "COc1ccc(C2=NS(=O)(=O)N(C)C(C(=O)NCc3ccc4c(c3)OCO4)=C2)cc1OC", "values": [{"measurement": "cell number change", "value": 11.2, "unit": "%"}, {"measurement": "AC50", "setting": "[1]", "value": "0.058 µM [rising, full curve, poor fit]"}]}, {"smiles": "COc1ccc(S(=O)(=O)N2CC=C(C(=O)NC3CCCC3)CC2)cc1", "values": [{"measurement": "cell number change", "value": -13.9, "unit": "%"}, {"measurement": "AC50", "setting": "[2]", "value": "4.61 µM [falling, partial curve]"}]}, {"smiles": "O=C(NNC(=S)NCc1ccco1)c1ccc(Cl)s1", "values": [{"measurement": "cell number change", "value": -48.2, "unit": "%"}, {"measurement": "AC50", "setting": "[1]", "value": "16.4 µM [falling, single point]"}, {"measurement": "AC50", "setting": "[2]", "value": "18.4 µM [falling, single point]"}]}, {"smiles": "Cc1ccc(C2C(C#N)=C(N)Oc3nc(-c4ccccc4)[nH]c32)o1", "note": "(stereo not drawn)", "values": [{"measurement": "cell number change", "value": -21.7, "unit": "%"}, {"measurement": "AC50", "setting": "[2]", "value": "29.1 µM [rising, single point]"}]}, {"smiles": "COc1ccc2c(Cl)c(C(=O)N/N=C/c3ccncc3)sc2c1", "values": [{"measurement": "cell number change", "value": 52.8, "unit": "%"}, {"measurement": "AC50", "setting": "[1]", "value": "7.31 µM [rising, full curve, poor fit]"}, {"measurement": "AC50", "setting": "[2]", "value": "16.4 µM [falling, partial curve]"}]}, {"smiles": "COc1ccc(S(=O)(=O)N2CCC(C(=O)Nc3nnc(C)s3)CC2)cc1OC", "values": [{"measurement": "cell number change", "value": 13.8, "unit": "%"}, {"measurement": "AC50", "setting": "[2]", "value": "0.82 µM [falling, full curve, poor fit]"}]}, {"smiles": "COc1ccc2[nH]c3c(N4CC(C)OC(C)C4)ncnc3c2c1", "note": "(stereo not drawn)", "values": [{"measurement": "AC50", "setting": "[1]", "value": "3.66 µM [rising, partial curve]"}, {"measurement": "AC50", "setting": "[2]", "value": "0.116 µM [rising, full curve, poor fit]"}]}, {"smiles": "CNc1nc(-c2ccc(S(=O)(=O)N3CCCCC3)cc2)cs1", "values": [{"measurement": "cell number change", "value": -11.3, "unit": "%"}, {"measurement": "AC50", "setting": "[2]", "value": "0.58 µM [rising, single point]"}]}, {"smiles": "CCOC(=O)C1=C(C)SC2=NS(=O)(=O)CCN21", "values": [{"measurement": "cell number change", "value": 0.875, "unit": "%"}, {"measurement": "AC50", "setting": "[2]", "value": "0.0731 µM [falling, full curve, poor fit]"}]}, {"smiles": "Cc1ccc(NC(=O)COC(=O)c2ccc3c(c2)NC(=O)C2CCCN32)cc1", "note": "(stereo not drawn)", "values": [{"measurement": "cell number change", "value": 7.11, "unit": "%"}, {"measurement": "AC50", "setting": "[2]", "value": "1.46 µM [rising, single point]"}]}, {"smiles": "Nc1c(C(=O)CCC(=O)O)oc2ccc(Cl)cc12", "values": [{"measurement": "cell number change", "value": -1.1, "unit": "%"}]}, {"smiles": "COc1cccc(NC(=O)CCP(C)(=O)O)c1", "values": [{"measurement": "cell number change", "value": 1.35, "unit": "%"}]}, {"smiles": "COc1ccc(NS(=O)(=O)c2ccc3c(c2)NC(=O)CCS3)cc1Cl", "values": [{"measurement": "cell number change", "value": -0.472, "unit": "%"}]}, {"smiles": "CCCCNS(=O)(=O)c1ccc2nc(-c3cccnc3)cc(C(=O)NC(C)CC)c2c1", "note": "(stereo not drawn)", "values": [{"measurement": "cell number change", "value": 11.6, "unit": "%"}, {"measurement": "AC50", "setting": "[2]", "value": "0.184 µM [rising, single point]"}]}, {"smiles": "CCN(c1ccccc1)S(=O)(=O)c1ccc(N)c(OC)c1", "values": [{"measurement": "cell number change", "value": 58.6, "unit": "%"}, {"measurement": "AC50", "setting": "[1]", "value": "0.0517 µM [rising, full curve, poor fit]"}, {"measurement": "AC50", "setting": "[2]", "value": "0.184 µM [rising, full curve]"}]}, {"smiles": "NCCCC(=O)N1c2ccccc2Sc2ccc(Cl)cc21", "values": [{"measurement": "cell number change", "value": -8.51, "unit": "%"}]}, {"smiles": "O=C(O)C1C2C=CC(C2)C1C(=O)N1CCOCC1", "note": "(stereo not drawn)", "values": [{"measurement": "cell number change", "value": -199, "unit": "%"}, {"measurement": "AC50", "setting": "[1]", "value": "23.1 µM [falling, partial curve]"}]}, {"smiles": "CCN(CC)S(=O)(=O)c1cc(NC(=O)c2ccc(-n3cncn3)c([N+](=O)[O-])c2)ccc1C", "values": [{"measurement": "cell number change", "value": -45.3, "unit": "%"}, {"measurement": "AC50", "setting": "[1]", "value": "8.2 µM [falling, partial curve]"}]}, {"smiles": "NC(=O)CNc1ncc(C(F)(F)F)cc1Cl", "values": [{"measurement": "cell number change", "value": 54.4, "unit": "%"}, {"measurement": "AC50", "setting": "[1]", "value": "29.1 µM [rising, partial curve, poor fit]"}]}, {"smiles": "O=C1C2C(C(=O)N1CCN1CCN(Cc3ccc([N+](=O)[O-])cc3)CC1)[C@H]1C=C[C@@H]2C1", "note": "(stereo partly drawn)", "values": [{"measurement": "cell number change", "value": 13.9, "unit": "%"}, {"measurement": "AC50", "setting": "[2]", "value": "29.1 µM [falling, single point]"}]}]}
